# Assay results: patent US20260256723A1, “THIOL-BASED COMPOUNDS AND COMPOSITIONS AND USES THEREOF” (CASE WESTERN RESERVE UNIVERSITY, priority 2022, published 2026)
# Several values for one entry are separate records, joined by “and”; a condition that tells them apart may be missing. Equal values may be shown once. Read-outs that look alike come from different tables or passages of the source. The amount applied is not stated for every result.
# Tested on: unanesthetized rats receiving continuous intravenous infusion of fentanyl
# Set-up: species or system Sprague Dawley rat
# Conditions: rat, in vivo
smiles,measurement,setting,value
"CC(=O)N[C@@H](CS)C(=O)O [L-NAC, N-acetyl-L-cysteine]",Body temperature,,37.8 ± 0.1 °C and 37.7 ± 0.1 °C and 37.4 ± 0.1 °C
same,"Body temperature, Delta changes from Pre",,0.23 ± 0.03 °C and 0.33 ± 0.04 °C and 0.34 ± 0.04 °C and 0.32 ± 0.06 °C and 0.28 ± 0.06 °C and 0.29 ± 0.05 °C
same,Body temperature,iv,37.7 ± 0.1 °C and 37.6 ± 0.1 °C
same,"Body temperature, Delta changes from Pre",iv,0.14 ± 0.04 °C and 0.28 ± 0.07 °C
